Source: ChEMBL document CHEMBL3988442, “University of Dundee, Small-Polar-MMV Screening Library” (2021).

Chains of the proteins cited; added tags and fusions are not shown. Residues count along the entry.
UniProt P9WNZ1, whole entry: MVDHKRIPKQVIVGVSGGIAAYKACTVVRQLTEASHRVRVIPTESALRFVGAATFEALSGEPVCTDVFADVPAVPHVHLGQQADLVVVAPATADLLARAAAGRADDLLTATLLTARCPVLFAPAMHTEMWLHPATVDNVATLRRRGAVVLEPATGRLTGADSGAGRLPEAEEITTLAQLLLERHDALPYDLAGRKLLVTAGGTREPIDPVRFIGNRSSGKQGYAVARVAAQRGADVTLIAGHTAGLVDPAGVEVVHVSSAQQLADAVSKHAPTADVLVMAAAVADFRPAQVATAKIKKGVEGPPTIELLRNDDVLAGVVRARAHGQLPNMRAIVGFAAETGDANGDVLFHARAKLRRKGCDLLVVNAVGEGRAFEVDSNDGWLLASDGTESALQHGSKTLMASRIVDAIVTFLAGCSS
UniProt I6X8D2, whole entry: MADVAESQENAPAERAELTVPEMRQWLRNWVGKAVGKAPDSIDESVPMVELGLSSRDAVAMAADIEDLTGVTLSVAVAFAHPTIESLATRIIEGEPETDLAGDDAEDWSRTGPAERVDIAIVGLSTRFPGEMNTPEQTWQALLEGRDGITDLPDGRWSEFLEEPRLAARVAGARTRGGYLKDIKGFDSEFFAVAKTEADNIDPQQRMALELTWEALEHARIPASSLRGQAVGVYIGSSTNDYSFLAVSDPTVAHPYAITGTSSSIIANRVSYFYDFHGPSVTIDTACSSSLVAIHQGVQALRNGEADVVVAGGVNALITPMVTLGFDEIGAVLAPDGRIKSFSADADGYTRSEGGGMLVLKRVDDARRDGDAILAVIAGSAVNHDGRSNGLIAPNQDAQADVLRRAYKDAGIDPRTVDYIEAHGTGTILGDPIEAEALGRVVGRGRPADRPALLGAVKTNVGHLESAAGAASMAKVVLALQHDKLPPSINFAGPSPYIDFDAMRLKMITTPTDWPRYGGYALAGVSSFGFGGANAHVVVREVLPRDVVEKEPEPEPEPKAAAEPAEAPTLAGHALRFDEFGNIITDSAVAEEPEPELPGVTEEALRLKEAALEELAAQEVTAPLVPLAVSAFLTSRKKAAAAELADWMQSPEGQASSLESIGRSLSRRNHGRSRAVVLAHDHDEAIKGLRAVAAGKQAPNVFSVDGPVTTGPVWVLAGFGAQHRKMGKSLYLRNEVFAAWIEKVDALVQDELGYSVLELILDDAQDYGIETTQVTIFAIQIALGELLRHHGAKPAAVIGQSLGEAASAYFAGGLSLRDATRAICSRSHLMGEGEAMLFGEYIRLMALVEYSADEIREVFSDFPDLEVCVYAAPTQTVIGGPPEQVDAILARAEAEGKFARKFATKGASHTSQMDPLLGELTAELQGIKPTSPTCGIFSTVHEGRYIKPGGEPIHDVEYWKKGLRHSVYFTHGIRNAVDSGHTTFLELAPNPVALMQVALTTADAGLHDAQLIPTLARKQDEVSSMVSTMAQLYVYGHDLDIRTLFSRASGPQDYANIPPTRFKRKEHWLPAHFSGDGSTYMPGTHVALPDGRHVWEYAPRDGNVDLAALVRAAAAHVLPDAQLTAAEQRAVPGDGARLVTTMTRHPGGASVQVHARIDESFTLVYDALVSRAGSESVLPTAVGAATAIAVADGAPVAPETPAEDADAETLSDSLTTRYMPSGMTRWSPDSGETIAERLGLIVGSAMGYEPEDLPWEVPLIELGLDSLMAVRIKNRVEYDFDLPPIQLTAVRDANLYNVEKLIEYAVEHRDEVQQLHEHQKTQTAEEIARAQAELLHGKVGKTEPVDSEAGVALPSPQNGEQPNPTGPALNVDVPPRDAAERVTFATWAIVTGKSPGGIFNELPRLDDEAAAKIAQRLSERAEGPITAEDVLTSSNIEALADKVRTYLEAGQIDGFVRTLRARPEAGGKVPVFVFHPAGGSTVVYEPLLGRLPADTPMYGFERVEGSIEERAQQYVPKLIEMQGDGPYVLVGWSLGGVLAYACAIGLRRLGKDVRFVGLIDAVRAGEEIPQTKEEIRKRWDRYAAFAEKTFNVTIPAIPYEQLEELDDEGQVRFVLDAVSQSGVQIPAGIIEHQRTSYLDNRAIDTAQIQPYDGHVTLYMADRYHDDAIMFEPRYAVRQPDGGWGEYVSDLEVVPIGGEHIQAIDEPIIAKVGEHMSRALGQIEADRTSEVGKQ
UniProt P9WPC5, whole entry: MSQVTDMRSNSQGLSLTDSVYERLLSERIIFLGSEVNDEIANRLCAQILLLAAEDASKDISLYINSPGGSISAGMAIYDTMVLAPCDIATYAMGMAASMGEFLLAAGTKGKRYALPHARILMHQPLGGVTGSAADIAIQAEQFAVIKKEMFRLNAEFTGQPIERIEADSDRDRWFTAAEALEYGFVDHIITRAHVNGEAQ
UniProt P9WPC3, whole entry partner: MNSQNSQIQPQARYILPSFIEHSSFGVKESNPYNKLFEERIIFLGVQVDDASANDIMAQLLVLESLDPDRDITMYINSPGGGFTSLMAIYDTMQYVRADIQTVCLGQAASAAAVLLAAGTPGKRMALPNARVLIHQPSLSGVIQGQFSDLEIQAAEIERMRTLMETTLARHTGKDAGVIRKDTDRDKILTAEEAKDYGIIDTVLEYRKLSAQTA
UniProt A4I591, 1-473: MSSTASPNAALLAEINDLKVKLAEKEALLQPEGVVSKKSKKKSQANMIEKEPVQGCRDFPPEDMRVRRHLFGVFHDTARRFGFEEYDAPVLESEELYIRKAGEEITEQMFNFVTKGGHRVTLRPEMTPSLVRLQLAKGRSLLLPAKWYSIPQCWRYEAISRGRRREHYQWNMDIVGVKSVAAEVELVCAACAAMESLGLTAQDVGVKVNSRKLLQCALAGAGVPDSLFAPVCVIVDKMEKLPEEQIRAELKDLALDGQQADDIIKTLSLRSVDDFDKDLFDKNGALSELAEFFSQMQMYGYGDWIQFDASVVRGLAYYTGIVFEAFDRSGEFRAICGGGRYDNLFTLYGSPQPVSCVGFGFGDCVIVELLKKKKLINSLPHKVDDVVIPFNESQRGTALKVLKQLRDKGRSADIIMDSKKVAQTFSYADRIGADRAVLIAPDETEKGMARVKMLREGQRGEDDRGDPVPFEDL
UniProt P9WFT3, whole entry: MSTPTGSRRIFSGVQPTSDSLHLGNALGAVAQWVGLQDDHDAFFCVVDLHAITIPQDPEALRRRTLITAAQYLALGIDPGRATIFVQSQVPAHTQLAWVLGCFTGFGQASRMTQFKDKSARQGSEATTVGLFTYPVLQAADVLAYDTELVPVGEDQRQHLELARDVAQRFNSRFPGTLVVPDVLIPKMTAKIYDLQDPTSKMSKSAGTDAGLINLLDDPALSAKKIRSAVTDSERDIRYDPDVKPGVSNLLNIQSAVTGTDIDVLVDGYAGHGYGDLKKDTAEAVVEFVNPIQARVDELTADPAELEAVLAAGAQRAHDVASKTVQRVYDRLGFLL

CoaBC: 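Coenzyme A biosynthesis protein CoaBC, Mycobacterium tuberculosis (UniProt P9WNZ1). Enzyme assay of CoaBC with a phosphate dye (Biomol Green) read at 650 nm. Compounds at 30 µM. Higher reads as stronger inhibition, judged from the few compounds that gave an IC50. Most strong results did not repeat in a second test. Of about 67,000 compounds tested this way, about 40 (0.06%) reached 50% or more in at least one test.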
Pks13 thioesterase: 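Polyketide synthase Pks13, Mycobacterium tuberculosis (UniProt I6X8D2). Enzyme assay of the thioesterase domain of polyketide synthase 13; the read-out is not stated. Tested at 30 µM. The record gives no direction; the compounds picked for IC50 retests had high values, so higher reads as stronger inhibition. Of about 67,000 compounds tested this way, about 300 (0.46%) reached 50% or more in at least one test.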
ClpP1P2: 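Protease assay of ClpP1P2, read by the AMC dye that it sets free. Target: ClpP1P2, Mycobacterium tuberculosis (UniProt P9WPC5 and UniProt P9WPC3). Tested at 50 µM. Direction is inferred from only a few compounds that gave an IC50; most scored high, so higher reads as stronger inhibition. Most other retested compounds had strongly negative values. Of about 69,000 compounds tested this way, about 10 (0.015%) reached 50% or more in at least one test.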
LiHisRS: 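Histidine-tRNA ligase, Leishmania infantum (UniProt A4I591). Enzyme assay of histidyl-tRNA synthetase; the read-out is not stated. Compounds at 30 µM. The record gives no direction; compounds that gave an IC50 in retests scored well above the rest, so higher reads as stronger inhibition. The assay is labelled LdHisRS but filed under L. infantum. Size under these conditions: about 69,000 compounds, about 410 of them at 50% or above in at least one test.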
MtTrpRS: 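Tryptophan-tRNA ligase, Mycobacterium tuberculosis (UniProt P9WFT3). Enzyme assay of tryptophanyl-tRNA synthetase; the read-out is not stated. Tested at 10 µM. Higher most likely means stronger inhibition; the record gives no direction and few retests gave an IC50. Size under these conditions: about 65,000 compounds, about 64 of them at 50% or above in at least one test.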

Values are the deposited “Percent Effect”, in %. The record does not define 0% and 100%; most values in the screen are far below 50% and negative numbers occur (in some assays of this library far below -100). This is an unselected part of the compounds tested.

compound: CCc1n[nH]c(=O)c(C(=O)N2CCSCC2)c1CC
CoaBC: 4.177
Pks13 thioesterase: -1.948
ClpP1P2: -4.363
LiHisRS: 12.5
MtTrpRS: 2.576

compound: COc1ccc(CC(=O)Nc2cccnc2N2CCCC2)cc1OC
CoaBC: 1.048
Pks13 thioesterase: 3.206
ClpP1P2: -27.88
LiHisRS: 14.91
MtTrpRS: -4.096

compound: c1ccc(-c2ncc3c(n2)C2(CCN(CC4CC4)C2)COC3)cc1 (centres unmarked)
CoaBC: -6.036
Pks13 thioesterase: -18.06
ClpP1P2: 1.718
LiHisRS: 1.37
MtTrpRS: -2.008

compound: O=C1NCCO[C@H]2CN(C(=O)c3cccs3)CC[C@@H]12
CoaBC: 2.956
Pks13 thioesterase: -4.781
ClpP1P2: 4.387
LiHisRS: 22
MtTrpRS: -0.5724

compound: Cn1ccnc1SCCNc1ccnc(C(F)(F)F)n1
CoaBC: 10.4
Pks13 thioesterase: -26.31
ClpP1P2: 1.42
LiHisRS: 10.26
MtTrpRS: 0.08946

compound: CSc1ccccc1C(=O)Nc1ccc(OC2CCN(C)CC2)cc1
CoaBC: 0.1206
Pks13 thioesterase: -14.4
ClpP1P2: -7.617
LiHisRS: -0.8
MtTrpRS: -0.2174

compound: Cc1nn(C)cc1CN1CCc2c(nc(-c3ccccn3)[nH]c2=O)C1
CoaBC: 3.186
Pks13 thioesterase: 26.3
ClpP1P2: -6.571
LiHisRS: 3.125

compound: CC(=O)NCC(=O)N1CCC2(COCc3c(C)nc(N(C)C)nc32)C1 (centres unmarked)
CoaBC: 1.976
Pks13 thioesterase: -5.433
ClpP1P2: -13.85
LiHisRS: 10.96
MtTrpRS: 0.6785

compound: Cc1cccc2nc(CSCc3nnnn3C(C)C)cn12
CoaBC: -2.927
Pks13 thioesterase: -6.792
ClpP1P2: -19.5
LiHisRS: 4.8
MtTrpRS: -1.053

compound: CCCNC(=O)CNC(=O)CC1CCCc2cc(OC)ccc21 (centres unmarked)
CoaBC: 4.54
Pks13 thioesterase: 1.937
ClpP1P2: 7.372
LiHisRS: 5.882
MtTrpRS: -0.2467

compound: CCN(CC)C(CNCc1cc(F)cc(F)c1)c1ccco1 (centres unmarked)
CoaBC: -2.781
Pks13 thioesterase: -21.88
ClpP1P2: 4.951
LiHisRS: 4.839
MtTrpRS: 4.224

compound: CC(C)c1cc(NC(CCO)c2ccccc2)n2nccc2n1 (centres unmarked)
CoaBC: 2.433
Pks13 thioesterase: -3.235
ClpP1P2: -0.4099
LiHisRS: 17.78
MtTrpRS: 8.497

compound: CC(=O)c1cccc(OCCCC(=O)N(C)Cc2ccccn2)c1
CoaBC: 5.33
Pks13 thioesterase: 3.62
ClpP1P2: -24.35
LiHisRS: 9.615
MtTrpRS: 0.2322

compound: CN(C)S(=O)(=O)N1CCC(c2ccncc2)CC1
CoaBC: -2.349
Pks13 thioesterase: -1.35
ClpP1P2: 7.596
LiHisRS: 6.207
MtTrpRS: -3.922

compound: CNC(=O)NC(=O)CSC(C)c1ccccc1F (centres unmarked)
CoaBC: 4.305
Pks13 thioesterase: -24.86
ClpP1P2: -7.21
LiHisRS: 16.13
MtTrpRS: -0.7807

Repeated from the top, 2 entries:

- CCc1n[nH]c(=O)c(C(=O)N2CCSCC2)c1CC : CoaBC: 4.177%; Pks13 thioesterase: -1.948%; ClpP1P2: -4.363%; LiHisRS: 12.5%; MtTrpRS: 2.576%
- COc1ccc(CC(=O)Nc2cccnc2N2CCCC2)cc1OC : CoaBC: 1.048%; Pks13 thioesterase: 3.206%; ClpP1P2: -27.88%; LiHisRS: 14.91%; MtTrpRS: -4.096%